Reference: the supplement of paper PMC9671908
Counter-ions that a name gives are not always drawn. ± gives the standard deviation of the averaged measurements. Some of the results follow. Single values are uncertain, as repeats are few or missing.

Key:
MIA PaCa-2 parental = assay: parental cell viability relative to untreated parental control; higher = more surviving cells; conditions: treatment time: 9 days
MIA PaCa-2 persister = assay: persister cell viability relative to untreated persister control; higher = more surviving persister cells; conditions: treatment time: 9 days; cell state: persister (100 nM gemcitabine + 100 nM Torin1)

## CNc1nc(Nc2cn(C(C)(C)C#N)nc2C)ncc1C(F)(F)F (inhibitor concentration: 10µM)
MIA PaCa-2 parental
  parental cell viability: 94%
MIA PaCa-2 persister
  persister cell viability: 92.5%

## C=CC(=O)N1CCC[C@@H](n2nc(-c3ccc(Oc4ccccc4)cc3)c3c(N)ncnc32)C1 [Ibrutinib] (inhibitor concentration: 3µM)
MIA PaCa-2 parental
  parental cell viability: 102%
MIA PaCa-2 persister
  persister cell viability: 102%

## C[C@@H]1COCCN1c1cc(C2([S@](C)(=N)=O)CC2)nc(-c2cc[nH]c3nccc2-3)n1 (inhibitor concentration: 3µM)
MIA PaCa-2 parental
  parental cell viability: 80%
MIA PaCa-2 persister
  persister cell viability: 12%

## CCn1c(-c2nonc2N)nc2c(C#CC(C)(C)O)ncc(OC[C@H]3CCCNC3)c21 (inhibitor concentration: 1µM)
MIA PaCa-2 parental
  parental cell viability: 100%
MIA PaCa-2 persister
  persister cell viability: 5%

## O=C(c1cc(Cc2n[nH]c(=O)c3ccccc23)ccc1F)N1CCN(C(=O)C2CC2)CC1 [Olaparib] (inhibitor concentration: 300µM)
MIA PaCa-2 parental
  parental cell viability: 21%
MIA PaCa-2 persister
  persister cell viability: 81%

## CC(/C=C/C(=O)NO)=C\[C@@H](C)C(=O)c1ccc(N(C)C)cc1 [Trichostatin A] (inhibitor concentration: 100nM)
MIA PaCa-2 parental
  parental cell viability: 83%
MIA PaCa-2 persister
  persister cell viability: 11.7 ± 12%

## O=C(CCCCCN1C(=O)c2cccc3cccc(c23)C1=O)NO [Scriptaid] (inhibitor concentration: 1µM)
MIA PaCa-2 parental
  parental cell viability: 97%
MIA PaCa-2 persister
  persister cell viability: 25%

## Cc1cc(O)c(-c2ccc([C@@H](C)CN)cc2)c2c1[nH]c(=O)c1sccc12 (inhibitor concentration: 3nM)
MIA PaCa-2 parental
  parental cell viability: 100%
MIA PaCa-2 persister
  persister cell viability: 96%

## C[C@@H](Oc1cc(-n2cnc3ccc(CN4CCN(C)CC4)cc32)sc1C(N)=O)c1ccccc1C(F)(F)F (inhibitor concentration: 300nM)
MIA PaCa-2 parental
  parental cell viability: 102%
MIA PaCa-2 persister
  persister cell viability: 145%

## Nc1ncccc1-c1nc2ccc(-c3ccccc3)nc2n1-c1ccc(C2(N)CCC2)cc1 [Miransertib] (inhibitor concentration: 1µM)
MIA PaCa-2 parental
  parental cell viability: 97%
MIA PaCa-2 persister
  persister cell viability: 106%

## CC(C)n1ncnc1-c1cn2c(n1)-c1ccc(O[C@@H](C)C(N)=O)cc1OCC2 (inhibitor concentration: 10µM)
MIA PaCa-2 parental
  parental cell viability: 80.5%
MIA PaCa-2 persister
  persister cell viability: 77%

## O=C1c2ccccc2-[n+]2ccc3c([nH]c4ccccc43)c21 [Fascaplysin (chloride)] (inhibitor concentration: 100nM)
MIA PaCa-2 parental
  parental cell viability: 99%
MIA PaCa-2 persister
  persister cell viability: 49%

## CCN(CC)CCCC(C)Nc1ccnc2cc(Cl)ccc12 (stereo not given) [Chloroquine] (inhibitor concentration: 10µM)
MIA PaCa-2 parental
  parental cell viability: 95%
MIA PaCa-2 persister
  persister cell viability: 10%

## COc1cc(OC)c(/C=C/S(=O)(=O)Cc2ccc(OC)c(OP(=O)(O)O)c2)c(OC)c1 [Briciclib] (inhibitor concentration: 100nM)
MIA PaCa-2 parental
  parental cell viability: 90%
MIA PaCa-2 persister
  persister cell viability: 95%

## CC(C)S(=O)(=O)c1ccc2nccc(Nc3ccc4scnc4c3)c2c1 (inhibitor concentration: 30µM)
MIA PaCa-2 parental
  parental cell viability: 60%
MIA PaCa-2 persister
  persister cell viability: 250%

## CC(C)c1cnn2c(NCc3ccccc3-n3cccn3)nc(OC3CCCNC3)nc12 (stereo not given) (inhibitor concentration: 300nM)
MIA PaCa-2 parental
  parental cell viability: 102%
MIA PaCa-2 persister
  persister cell viability: 160%

## Cn1c(=O)n(-c2ccc(C(C)(C)C#N)cc2)c2c3cc(-c4cnc5ccccc5c4)ccc3ncc21 [Dactolisib] (inhibitor concentration: 1µM)
MIA PaCa-2 parental
  parental cell viability: 105%
MIA PaCa-2 persister
  persister cell viability: 90%

## C[C@@H]1COCCN1c1cc(-c2ccnn2C)c2ccnc(-c3ccn[nH]3)c2n1 (inhibitor concentration: 30nM)
MIA PaCa-2 parental
  parental cell viability: 100%
MIA PaCa-2 persister
  persister cell viability: 1%

## CC(C)(C(N)=O)C(=O)NCCCNc1nc(Nc2cccc(NC(=O)N3CCCC3)c2)ncc1Br (inhibitor concentration: 3µM)
MIA PaCa-2 parental
  parental cell viability: 90%
MIA PaCa-2 persister
  persister cell viability: 195%

## Cn1nccc1Nc1nccc(-c2ccn([C@H](CO)c3ccc(Cl)c(F)c3)c(=O)c2)n1 [Ravoxertinib] (inhibitor concentration: 10µM)
MIA PaCa-2 parental
  parental cell viability: 83.5%
MIA PaCa-2 persister
  persister cell viability: 102%

## CNCc1ccc(-c2[nH]c3cc(F)cc4c3c2CCNC4=O)cc1 [Rucaparib] (inhibitor concentration: 3µM)
MIA PaCa-2 parental
  parental cell viability: 75.5%
MIA PaCa-2 persister
  persister cell viability: 104%

## Nc1ncn([C@H]2C[C@H](O)[C@@H](CO)O2)c(=O)n1 [Decitabine] (inhibitor concentration: 30µM)
MIA PaCa-2 parental
  parental cell viability: 41%
MIA PaCa-2 persister
  persister cell viability: 99.5%

## Cc1cccc(CC(=O)N2CCc3c2ccc(-c2cn(C)c4ncnc(N)c24)c3F)n1 (inhibitor concentration: 30µM)
MIA PaCa-2 parental
  parental cell viability: 102%
MIA PaCa-2 persister
  persister cell viability: 160%

## Cc1[nH]nc2ccc(-c3cncc(OC[C@@H](N)Cc4ccccc4)c3)cc12 (inhibitor concentration: 100nM)
MIA PaCa-2 parental
  parental cell viability: 85%
MIA PaCa-2 persister
  persister cell viability: 60%

## CC[C@H](CO)Nc1nc(NCc2ccccc2)c2ncn(C(C)C)c2n1 [Roscovitine] (inhibitor concentration: 30µM)
MIA PaCa-2 parental
  parental cell viability: 9%
MIA PaCa-2 persister
  persister cell viability: 109%

## CC(C)(O)CNc1ncc(-c2ccnc(Nc3ccncc3)n2)c(CC2CC2)n1 [VPS34 inhibitor 1] (inhibitor concentration: 3µM)
MIA PaCa-2 parental
  parental cell viability: 99%
MIA PaCa-2 persister
  persister cell viability: 45%

## FC(F)(F)c1cc(C(F)(F)F)c2ccc3nc(-c4nnco4)cn3c2n1 (inhibitor concentration: 3µM)
MIA PaCa-2 parental
  parental cell viability: 101%
MIA PaCa-2 persister
  persister cell viability: 48%

## Cc1ccc(Oc2ccnc3cc(-c4cnn(C5CCNCC5)c4)ccc23)cc1 (inhibitor concentration: 30µM)
MIA PaCa-2 parental
  parental cell viability: 100%
MIA PaCa-2 persister
  persister cell viability: 97%

## CC(C)N(CCCNC(=O)Nc1ccc(C(C)(C)C)cc1)C[C@H]1O[C@@H](n2cc(Br)c3c(N)ncnc32)[C@H](O)[C@@H]1O (inhibitor concentration: 10µM)
MIA PaCa-2 parental
  parental cell viability: 96%
MIA PaCa-2 persister
  persister cell viability: 100%

## CC(C)C[C@H](NC(=O)[C@H](CCc1ccccc1)NC(=O)CN1CCOCC1)C(=O)N[C@@H](Cc1ccccc1)C(=O)N[C@@H](CC(C)C)C(=O)[C@@]1(C)CO1 [Carfilzomib] (inhibitor concentration: 1nM)
MIA PaCa-2 parental
  parental cell viability: 100%
MIA PaCa-2 persister
  persister cell viability: 96%

## CC(=O)N[C@@H](CC(=O)O)C(=O)N[C@@H](CCC(=O)O)C(=O)N[C@H](C(=O)N[C@@H](CC(=O)O)C(=O)CCl)C(C)C [Ac-DEVD-CMK (trifluoroacetate-salt)] (inhibitor concentration: 30µM)
MIA PaCa-2 parental
  parental cell viability: 101%
MIA PaCa-2 persister
  persister cell viability: 96.5%

## O=C1NC(=O)C(c2cnc3ccccn23)=C1c1cn2c3c(cc(F)cc13)CN(C(=O)N1CCCCC1)CC2 (inhibitor concentration: 100nM)
MIA PaCa-2 parental
  parental cell viability: 63%
MIA PaCa-2 persister
  persister cell viability: 22%

## CC(C)c1cc(C(=O)N2Cc3ccc(CN4CCN(C)CC4)cc3C2)c(O)cc1O [Onalespib] (inhibitor concentration: 30nM)
MIA PaCa-2 parental
  parental cell viability: 60%
MIA PaCa-2 persister
  persister cell viability: 100%

## Cc1cc(N)c2cc(NC(=O)Nc3ccc4nc(C)cc(N)c4c3)ccc2n1 [Surfen] (inhibitor concentration: 30µM)
MIA PaCa-2 parental
  parental cell viability: 80%
MIA PaCa-2 persister
  persister cell viability: 2%

## Cc1cc([C@@H](C)Nc2ccccc2C(=O)O)c2nc(N3CCOCC3)cc(=O)n2c1 (inhibitor concentration: 30µM)
MIA PaCa-2 parental
  parental cell viability: 61%
MIA PaCa-2 persister
  persister cell viability: 91%

## Cc1onc(C(=O)N2CCN(C(c3ccc(Cl)cc3)c3ccc(Cl)cc3)CC2)c1[N+](=O)[O-] (inhibitor concentration: 100nM)
MIA PaCa-2 parental
  parental cell viability: 103%
MIA PaCa-2 persister
  persister cell viability: 25%

## O=[N+]([O-])c1ccc(Nc2nc(N3CCOCC3)nc(N3CCOCC3)n2)cc1 (inhibitor concentration: 20µM)
MIA PaCa-2 parental
  parental cell viability: 105%
MIA PaCa-2 persister
  persister cell viability: 3%

## COc1ccc(CNC(=O)Nc2ncc([N+](=O)[O-])s2)cc1 [GSK3β Inhibitor VIII] (inhibitor concentration: 3µM)
MIA PaCa-2 parental
  parental cell viability: 78%
MIA PaCa-2 persister
  persister cell viability: 108%

## CC(C)CCN1c2nc(Nc3cc(F)c(O)c(F)c3)ncc2N(C)C(=O)C1C (stereo not given) (inhibitor concentration: 1µM)
MIA PaCa-2 parental
  parental cell viability: 100%
MIA PaCa-2 persister
  persister cell viability: 170%

## COc1cccc(OCCCN)c1-c1cc(Nc2cnc(C#N)cn2)n[nH]1 [Prexasertib HCl] (inhibitor concentration: 10nM)
MIA PaCa-2 parental
  parental cell viability: 95%
MIA PaCa-2 persister
  persister cell viability: 2%

## N[C@@H]1CCCN(c2c(/C=C3\SC(=O)NC3=O)cccc2-c2ccccc2)C1 (inhibitor concentration: 30µM)
MIA PaCa-2 parental
  parental cell viability: 103%
MIA PaCa-2 persister
  persister cell viability: 94%

## CN1C(=O)N[C@H](Cc2c[nH]c3c(Cl)cccc23)C1=O [Necrostatin-2] (inhibitor concentration: 30µM)
MIA PaCa-2 parental
  parental cell viability: 99%
MIA PaCa-2 persister
  persister cell viability: 98.5%

## CN1CC[C@H](c2c(O)cc(O)c3c(=O)cc(-c4ccccc4Cl)oc23)[C@H](O)C1 [Flavopiridol] (inhibitor concentration: 100nM)
MIA PaCa-2 parental
  parental cell viability: 100%
MIA PaCa-2 persister
  persister cell viability: 100%

## Cc1c(-c2c(-c3ccc(F)o3)sc3ncnc(O[C@H](Cc4ccccc4OCc4ccnn4CC(F)(F)F)C(=O)O)c23)ccc(OCCN2CCN(C)CC2)c1Cl (inhibitor concentration: 3µM)
MIA PaCa-2 parental
  parental cell viability: 60%
MIA PaCa-2 persister
  persister cell viability: 0%

## CCCc1cc(C)[nH]c(=O)c1CNC(=O)c1cc(-c2ccnc(N3CCN(C)CC3)c2)cc2c1cnn2C(C)C (inhibitor concentration: 10µM)
MIA PaCa-2 parental
  parental cell viability: 77%
MIA PaCa-2 persister
  persister cell viability: 107%

## CC(=O)Nc1cccc(-n2c(=O)n(C3CC3)c(=O)c3c(Nc4ccc(I)cc4F)n(C)c(=O)c(C)c32)c1 [Trametinib] (inhibitor concentration: 3µM)
MIA PaCa-2 parental
  parental cell viability: 20%
MIA PaCa-2 persister
  persister cell viability: 100%

## O=C(NC[C@H](O)CN1CCc2ccccc2C1)c1ccnc(NC2CCC2)c1 (inhibitor concentration: 10µM)
MIA PaCa-2 parental
  parental cell viability: 76%
MIA PaCa-2 persister
  persister cell viability: 97%

## CCCS(=O)(=O)Nc1ccc(F)c(C(=O)c2c[nH]c3ncc(-c4ccc(Cl)cc4)cc23)c1F (inhibitor concentration: 10µM)
MIA PaCa-2 parental
  parental cell viability: 103%
MIA PaCa-2 persister
  persister cell viability: 105%

## COc1cc(OC)c(/C=C/S(=O)(=O)Cc2ccc(OC)c(OP(=O)(O)O)c2)c(OC)c1 [Briciclib] (inhibitor concentration: 3nM)
MIA PaCa-2 parental
  parental cell viability: 80%
MIA PaCa-2 persister
  persister cell viability: 50%

## CC1(C)CCC(CN2CCN(c3ccc(C(=O)NS(=O)(=O)c4ccc(NCC5CCOCC5)c([N+](=O)[O-])c4)c(Oc4cnc5[nH]ccc5c4)c3)CC2)=C(c2ccc(Cl)cc2)C1 (inhibitor concentration: 3µM)
MIA PaCa-2 parental
  parental cell viability: 104%
MIA PaCa-2 persister
  persister cell viability: 98%
